No constants are given. Whether binding was seen depends on the method and setting. In cells and extracts the contact can be indirect. These calls come from enrichment with a bait or labelling near it, and not all partners need be listed.
T1: TAF1-TAP (S. cerevisiae) (UniProt P46677)
T1 sequence: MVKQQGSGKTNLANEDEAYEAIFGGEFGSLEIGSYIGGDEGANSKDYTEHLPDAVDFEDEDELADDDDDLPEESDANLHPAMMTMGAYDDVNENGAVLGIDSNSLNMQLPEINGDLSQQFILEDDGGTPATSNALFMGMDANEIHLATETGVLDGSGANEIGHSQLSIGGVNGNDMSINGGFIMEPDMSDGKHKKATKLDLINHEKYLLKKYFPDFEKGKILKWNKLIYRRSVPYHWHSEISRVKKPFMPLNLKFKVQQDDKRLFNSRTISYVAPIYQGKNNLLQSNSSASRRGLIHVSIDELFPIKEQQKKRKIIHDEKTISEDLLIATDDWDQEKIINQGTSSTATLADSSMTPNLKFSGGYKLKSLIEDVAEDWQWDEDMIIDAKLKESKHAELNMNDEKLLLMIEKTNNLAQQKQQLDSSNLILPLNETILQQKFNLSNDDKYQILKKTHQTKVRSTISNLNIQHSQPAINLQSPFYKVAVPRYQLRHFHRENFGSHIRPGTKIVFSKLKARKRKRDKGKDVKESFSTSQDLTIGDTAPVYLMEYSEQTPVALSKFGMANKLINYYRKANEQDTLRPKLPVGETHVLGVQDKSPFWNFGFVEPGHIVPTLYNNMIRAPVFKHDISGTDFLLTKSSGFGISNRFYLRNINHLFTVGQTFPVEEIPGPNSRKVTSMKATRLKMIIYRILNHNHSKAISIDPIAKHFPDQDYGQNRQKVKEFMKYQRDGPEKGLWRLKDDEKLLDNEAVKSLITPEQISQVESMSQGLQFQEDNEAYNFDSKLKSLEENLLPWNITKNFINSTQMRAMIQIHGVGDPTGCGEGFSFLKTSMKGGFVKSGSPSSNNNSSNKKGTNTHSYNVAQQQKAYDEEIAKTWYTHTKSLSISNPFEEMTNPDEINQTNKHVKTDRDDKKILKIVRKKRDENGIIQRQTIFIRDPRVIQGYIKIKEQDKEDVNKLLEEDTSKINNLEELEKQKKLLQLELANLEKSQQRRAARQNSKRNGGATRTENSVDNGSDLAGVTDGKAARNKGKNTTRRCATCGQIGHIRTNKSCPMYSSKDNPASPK

Protein sequences, listed by entry. Tags and fused reporters are not part of them.
UniProt P35189: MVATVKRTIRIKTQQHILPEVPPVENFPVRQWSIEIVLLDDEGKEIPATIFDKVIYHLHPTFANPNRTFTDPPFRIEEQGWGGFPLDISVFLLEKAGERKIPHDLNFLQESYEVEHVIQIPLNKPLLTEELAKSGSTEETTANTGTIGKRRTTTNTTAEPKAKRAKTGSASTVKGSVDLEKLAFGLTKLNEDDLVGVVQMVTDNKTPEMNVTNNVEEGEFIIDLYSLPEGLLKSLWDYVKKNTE
UniProt Q03761: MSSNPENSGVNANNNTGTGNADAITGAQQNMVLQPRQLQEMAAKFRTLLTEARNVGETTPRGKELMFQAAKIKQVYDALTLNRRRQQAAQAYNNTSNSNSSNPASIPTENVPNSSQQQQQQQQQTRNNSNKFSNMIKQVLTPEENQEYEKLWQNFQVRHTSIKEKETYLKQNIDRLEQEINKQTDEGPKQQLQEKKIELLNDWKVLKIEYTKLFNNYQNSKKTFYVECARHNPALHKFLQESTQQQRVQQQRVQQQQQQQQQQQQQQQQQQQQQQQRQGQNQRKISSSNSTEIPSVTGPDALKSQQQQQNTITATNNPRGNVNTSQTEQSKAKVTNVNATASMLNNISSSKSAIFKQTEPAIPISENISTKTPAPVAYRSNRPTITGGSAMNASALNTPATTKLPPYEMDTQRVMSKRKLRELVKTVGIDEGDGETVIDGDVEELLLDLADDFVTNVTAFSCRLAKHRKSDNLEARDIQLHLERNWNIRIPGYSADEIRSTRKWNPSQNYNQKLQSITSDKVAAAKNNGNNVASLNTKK

B1: TAF2 (protein, UniProt P23255 1-1407)
chain: MMSFSKNATPRAIVSESSTLHEMKFRNFRVAHEKISLDIDLATHCITGSATIIIIPLIQNLEYVTFDCKEMTIKDVLVENRRCDQFIHDDPLQTNLNGLTSQNVLYSDNSIEQSHFLRSKFASLNEYPETDSKSQLTIKIPSSIKISLEDANALSNYTPITPSIKTTPGFQESVFTPITLQIEYEIRNPKSGIKFDTVYADKPWLWNVYTSNGEICSSASYWVPCVDLLDEKSTWELEFSVPRLVKNIGTSKLIGQNGEESEKEKEDTPEHDEEEEGKPARVIKDEDKDSNLKNDEEGKNSKSKDAQDNDEEEEEGESDEEEEEGEEERRNIEESNNPSLRDVIVCCSEYSNIKELPHPIDLTKKKCIFQIINPVAPHHIGWAIGAFNSWSLPLISPPSVDAEDEVEEDKLRENVVDNVNDTMDDDIGSDIIPIQIFTLPTQETDELTVINSTVVCQKIIDFYSKEFGSYPFTCYSMVFLPTAPSKHMDFAALGICNTRLLYPLEVIDKAFSTTNELAWALANQWSCVNITPLDMNDYWCCLGIAGYMVFQVTKKLMGNNTYKYQLKRNSEAIVEQDFEKPPIGSTFTGSSRPISWSSKDLSFIQLKAPMILHILDRRMTKTERSFGMSRVLPKIFLQAMSGDLPNNSLTSSHFQHVCERVNKSKLENFFNEWVYGSGVPILRVTQRFNRKRMVIELGIRQVQDEELGHEKVVGEEGFFKSALDHLEHPDLNRTECFTGSMTIRIHEHDGTPYEHIVEIKDTFTKIDIQYNTKYRRLRKRGGGANDENGVENNNEEKPIVVDVNCLGNVYMSPEECSRFSLTEFNRTSESNELLKQNEAFEWIRIDSDLEWICQMHINQPDYMFSSQLRQDGDIEAQLEAIRYYEDVVVNGGVKSLVYSSILFRTAIDERYFFGIRLAACEALSKYVYDPDFTGGVKHLIQIFQILFCLEDSNIPKSNNFENPKLYFLQCNIPKYLAKVKNENGKCPKLVKQFLLDILVYNENGENKYSDDAYVRSLIENVVKVALNEYKDKAYMEKVKTQLLRYENLVNWLSSYESLIKTTIMYAKYKLHKVGAYDFTELTGMIMHTLTLGINNGDISRESFQNEFLMVLKIMLLEGGLKNKDALVLFTEILCFHEDSYIRDKSVDVLSECVNLVVMDGSLDTISDDIKSSVQSVHNEVKNIKSEDDIELFLSGHYVDDMKIKIEKIGRQNISGLIQICRDMFKGYSPLKILLWDVLNLPVLSLYQRKQIHDLVRVMYTLINSFVVRLETPRERRLVAKMNSNEEGKLDIVIKRESILKVHIKKEVTSTVEAPKKANKIKISLKGDKPVRKVEKQIVKPKVTSKQRKVKSHVNRMGSLPLRFVKIQQQPRVMVHLSSVPYSQFVQITKVTSRSFMVKIRTKNDAKN
B2: TAF13 (protein, UniProt P11747 1-167)
chain: MSRKLKKTNLFNKDVSSLLYAYGDVPQPLQATVQCLDELVSGYLVDVCTNAFHTAQNSQRNKLRLEDFKFALRKDPIKLGRAEELIATNKLITEAKKQFNETDNQNSLKRYREEDEEGDEMEEDEDEQQVTDDDEEAAGRNSAKQSTDSKATKIRKQGPKNLKKTKK
B3: TAF3 (protein, UniProt Q12297 1-353)
chain: MTTNNDFYFALLRISILQLLKAQGFDRARPSLVDVMTDLYAKFLSLLASEVSSIAQARCDQDDTIALQDITLALENLGIVKPTNVLDVYDENSELSSSRGMEKFKDWCIYSTQLTDARITALPTVELLQSEEKESDPLSAIPDYLNQLLQNKGAKQKLETKNRKTELIEDLINNNGLDDWIKLVIARQRINMIERASKKESQNVPALPHIAGYKSSILSRHHHTTITNEDRMPSAMTPRDEDALTEIQENPFVTSKLPIMRKENRLENITLSFEDEELESLGEVEGPNQKSQENNNEESFKENNKSLTESPHGDDRDISMFQFDSNVDTKWAEQEDMDSTFQRRTSLDYGGYF
B4: TAF4 (protein, UniProt P50105 1-388)
chain: MANSPKKPSDGTGVSASDTPKYQHTVPETKPAFNLSPGKASELSHSLPSPSQIKSTAHVSSTHNDAAGNTDDSVLPKNVSPTTNLRVESNGDTNNMFSSPAGLALPKKDDKKKNKGTSKADSKDGKASNSSGQNAQQQSDPNKMQDVLFSAGIDVREEEALLNSSINASKSQVQTNNVKIPNHLPFLHPEQVSNYMRKVGKEQNFNLTPTKNPEILDMMSSACENYMRDILTNAIVISRHRRKAVKINSGRRSEVSAALRAIALIQKKEEERRVKKRIALGLEKEDYENKIDSEETLHRASNVTAGLRAGSKKQYGWLTSSVNKPTSLGAKSSGKVASDITARGESGLKFREAREEPGIVMRDLLFALENRRNSVQTIISKGYAKIRD
B5: TAF5 (protein, UniProt P38129 1-798)
chain: MSQKQSTNQNQNGTHQPQPVKNQRTNNAAGANSGQQPQQQSQGQSQQQGRSNGPFSASDLNRIVLEYLNKKGYHRTEAMLRAESGRTLTPQNKQSPANTKTGKFPEQSSIPPNPGKTAKPISNPTNLSSKRDAEGGIVSSGRLEGLNAPENYIRAYSMLKNWVDSSLEIYKPELSYIMYPIFIYLFLNLVAKNPVYARRFFDRFSPDFKDFHGSEINRLFSVNSIDHIKENEVASAFQSHKYRITMSKTTLNLLLYFLNENESIGGSLIISVINQHLDPNIVESVTAREKLADGIKVLSDSENGNGKQNLEMNSVPVKLGPFPKDEEFVKEIETELKIKDDQEKQLNQQTAGDNYSGANNRTLLQEYKAMNNEKFKDNTGDDDKDKIKDKIAKDEEKKESELKVDGEKKDSNLSSPARDILPLPPKTALDLKLEIQKVKESRDAIKLDNLQLALPSVCMYTFQNTNKDMSCLDFSDDCRIAAAGFQDSYIKIWSLDGSSLNNPNIALNNNDKDEDPTCKTLVGHSGTVYSTSFSPDNKYLLSGSEDKTVRLWSMDTHTALVSYKGHNHPVWDVSFSPLGHYFATASHDQTARLWSCDHIYPLRIFAGHLNDVDCVSFHPNGCYVFTGSSDKTCRMWDVSTGDSVRLFLGHTAPVISIAVCPDGRWLSTGSEDGIINVWDIGTGKRLKQMRGHGKNAIYSLSYSKEGNVLISGGADHTVRVWDLKKATTEPSAEPDEPFIGYLGDVTASINQDIKEYGRRRTVIPTSDLVASFYTKKTPVFKVKFSRSNLALAGGAFRP
B6: TAF6 (protein, UniProt P53040 1-516)
chain: MSTQQQSYTIWSPQDTVKDVAESLGLENINDDVLKALAMDVEYRILEIIEQAVKFKRHSKRDVLTTDDVSKALRVLNVEPLYGYYDGSEVNKAVSFSKVNTSGGQSVYYLDEEEVDFDRLINEPLPQVPRLPTFTTHWLAVEGVQPAIIQNPNLNDIRVSQPPFIRGAIVTALNDNSLQTPVTSTTASASVTDTGASQHLSNVKPGQNTEVKPLVKHVLSKELQIYFNKVISTLTAKSQADEAAQHMKQAALTSLRTDSGLHQLVPYFIQFIAEQITQNLSDLQLLTTILEMIYSLLSNTSIFLDPYIHSLMPSILTLLLAKKLGGSPKDDSPQEIHEFLERTNALRDFAASLLDYVLKKFPQAYKSLKPRVTRTLLKTFLDINRVFGTYYGCLKGVSVLEGESIRFFLGNLNNWARLVFNESGITLDNIEEHLNDDSNPTRTKFTKEETQILVDTVISALLVLKKDLPDLYEGKGEKVTDEDKEKLLERCGVTIGFHILKRDDAKELISAIFFGE
B7: TAF7 (protein, UniProt Q05021 1-590)
chain: MAVIRIKKPRGPGEKDQPLEGEPKLKRIRIKTKVTDEDIKPKPKLKINLKKKKESADGKEKKNSLKLKLNLKKNEEPVKKIHKAPKLRLKPIRIPGEAYDSEASDIEDDPLIESGVILRILPDIQLEFVKNSLESGDYSGISIKWKNERHAVVTINDVMYGAILVDLPTVIEVNKSVDRKNLLKTFDVSQMLLCIRPIQEEEEVYALEAPDTEDLVVKHFEGIEDEIWENKETFLKGYNGAPLSDMEAKHLKEIALKGYDYKHGISPPLYNVRNRRFRRKMDPNEIDYVEKVVDMLLKQDKQAEEVSYDLVDKSELQARQERVSSWENFKEEPGEPLSRPALKKEEIHTIASAVGKQGAEEEGEEGMEEEEEEDLDLGAAFESEEEGSGAEGDKEQQQEEVGDEVDQDTGGEDDDDDDDGDIEAAGGESESDDEKDENRQHTELLADELNELETTLAHTKHKLSKATNPLLKSRFIDSIKKLEKEAELKRKQLQQTEDSVQKQHQHRSDAETANNVEEEEEEEEEEEEEDEVDEDEEDDEENDEDEDNVHEREHIQENKVVRELDEAPAEETLDQNDLDMMMLFGAEGDE
B8: TAF8 (protein, UniProt Q03750 1-510)
chain: MTSKTSESGTGTQSTIVQLRNLPDLTEISHLEIDAPVVEILKKTVLFQLNSLNICISNFALDELVNLVTVQMDGMFRNLHNLTLLQRRSQASQADLKLLLREFNLDAPSLYQQFQASEFIKSKHSTEYEKLMSWSSLAALPHNEEDEEDELNNIEEQQNEINVLLPPSNPLEKQIPSWLPNFPPDHTYKFTPEFNHPITDLKTIKKEIVKESQESEKALLNLNKSLSHISSASNTPQPPGLDDEDAIEQQLEIWGNALEERKPTITEKSFNENNIEQYAKYRVELARERVTKFEVNQLKRTKNPFLKISETLYLPESPHQSHKTIQKTIELQFRKSMTLFMHNLPKVQKLKKEKIRMAKEERAKSLKRRQEELISQRTKREQDEGHDLELLLNNEHARDAADDTTTPNALNNSTIVINTNAEDEDDDINLFGILGSSEDENEMSSMPAENLVAESEPPTMTAQDTTNTTPVAHNTTNIDATTSHSPHSTPNENAPTSPPADIATDHDITM

What follows are molecules tested against T1, TAF1-TAP (S. cerevisiae) (assay: affinity purification with mass spectrometry; lysate of the TAF1-TAP strain on an IgG column; washes with 1 M and 50 mM potassium acetate; TEV protease elution; Superose 6 size exclusion (single peak at about 12.6 mL); subunits seen by SDS-PAGE and confirmed by mass spectrometry).
TAF14 (from UniProt P35189 1-244) was tested, and the binding was “binds”.
For TAF12 (from UniProt Q03761 1-539), the binding was “binds”.
For B1, the binding was “binds”.
B2 was tested, and the binding was “binds”.
In the case of B3, the binding is reported as “binds”.
B4 was tested, and the binding was “binds”.
For B5, the binding was “binds”.
For B6, the binding was “binds”.
In the case of B7, the binding is reported as “binds”.
For B8, the binding was “binds”.

Source: publication PMC6650902
